Laboratory results from US20020114804A1, “A METHOD OF TREATING INFECTION OF SUTURES AND PROSTHETIC DEVICES” (priority 1996, published 2002).
Some entries share one result that the patent states for a list of compounds. For part of these data: At least one structure is not confirmed: it was looked up by name or label, or the drawing left a doubt.

What was measured:
Format in all cases: cell-based, human
PMNs [1] = experiment: PMN adhesion to fibrin-coated surfaces; conditions: 15 min at 37° C.
PMNs [2] = experiment: PMN migration through fibrin gels in Boyden-type chemotaxis chambers; conditions: for PMNs that migrated through fibrin gels into the lower compartment: chemoattractant in lower compartment, 6 hrs at 37° C., TNF 10^−9-5×10^−6 M, fMLP 10^−10-10^−6 M
Procedure: Becton-Dickinson cell culture inserts (pore sizes 3 or 8 μm: Franklin Lakes, N.J.) were overlaid with the following proteins:
Fibrin gels: 1 Unit of thrombin (a gift from Dr. John Fenton, Albany Medical College, Albany, N.Y.), in 5 μl of PBS was added first to each insert. 0.1 ml phosphate buffered saline supplemented with Ca^2+ and Mg^2+ (PBS) containing 100 μg commercial grade fibrinogen (Calbiochem. Inc., San Diego, Calif.) or purified fibrinogen [a gift from Dr. Jeffery Weitz, (MacMaster University, Hamilton, On.)] was then placed into each 8.2 mm diameter insert on top of the thrombin. The mixture was incubated at 37° C. for 5 min to allow fibrin gel formation (determined by visual inspection). 1 Unit PPACK (Calbiochem Inc., San Diego, Calif.; 10^−5 M final concentration), in 100 μl medium was added to each insert to inhibit thrombin, and gels were washed with 250 μl PBS to remove inactivated thrombin. The fibrin gels formed were about 1 mm thick as measured under a dissecting microscope.
PMNs were prepared from fresh heparinized blood from healthy adult volunteers by sedimentation on Ficoll-Hypaque gradients. Contaminating red blood cells were removed by hypotonic lysis, as described (7). The purity of PMN isolated by this method is >95% as determined by Wright-Giemsa staining (7). 10^6 PMNs in 250 μl of PBS supplemented with 5.5 mM glucose and 0.1% human serum albumin (PBSG-HSA), were placed in the upper compartment of each insert and incubated for 0-6 hrs at 37° C. in a humidified atmosphere containing 95% air/5% CO2. At the times and concentrations specified, chemoattractants/cytokines were added to the top or bottom compartment in 250 μl of PBSG-HSA. At the end of the incubation, the chambers were shaken to dislodge PMNs from the lower surface of the inserts. The medium in each lower compartment was collected and its content of PMNs was determined using either a Coulter Counter or a hemocytometer. Both methods gave similar results. Counts are expressed as the average number of PMNs that migrated into the lower compartment. […]

PMNs [3] = experiment: Confocal microscopic analysis of PMN migration into fibrin gels
PMNs [4] = experiment: Exclusion of fluorescein-conjugated F(ab)2 anti-fibrin from zones of contact between PMNs and fibrin
Source text: Therefore, the exclusion of fluorescein-conjugated F(ab)2 anti-fibrin from zones of contact between LTB4- or IL-8-stimulated PMNs and fibrin was used as a measure of the interaction of these cells with fibrin-coated surfaces. About 50% of fibrin-adherent LTB4- or IL-8-stimulated PMNs formed adhesive zones that excluded this high molecular weight (100 kDa.) probe. As expected from studies with Rh-PEG (FIG. 8), >99% of fibrin-adherent TNF- or fMLP-stimulated PMNs excluded fluorescein-conjugated F(ab)2 anti-fibrin from their zones of contact with fibrin (data not shown).

PMNs [5] = experiment: Exclusion of rhodamine-labeled polyethylene glycol (Rh-PEG) from zones of adhesion of PMNs; conditions: single chemoattractant
Procedure: Rh-PEG binds avidly to protein-coated surfaces, and can be detected easily by its fluorescence. Individual wells on glass microslides (Carlson Scientific, Peotone, Ill.) were coated with either fibrin, Matrigel or collagen IV in a manner similar to that for coating cell culture inserts except that 20 μl of the various solutions were used per well. 20 μl of PMNs (10^6 cells/ml in PBSG-HSA) were added to each well and PMNs were allowed to adhere for 15 mins at 37°. The cells were washed in PBS, fixed with 3.7% paraformaldehyde in PBS for 10 min, washed again with PBS, and further incubated with 10 kDa Rh-PEG at room temperature for 60 min. The preparation then was washed with PBS and immediately observed by phase and fluorescent microscopy at 400× magnification. Average values from three different experiments are reported as the percentage of PMNs that excluded Rh-PEG from zones of adherence between the cells and the underlying matrix.

SMILES	Chemoattractant-stimulated PMNs adhered to fibrin (PMNs [1]) [per mm^2]	PMNs that migrated through fibrin gels into the lower compartment (PMNs [2])	Time by which maximal numbers of PMNs had migrated through fibrin gels (PMNs [2]; optimal concentration) [h]	PMNs that began to migrate into the fibrin gel (PMNs [3]; after 1 hr)	Fibrin-adherent PMNs that excluded fluorescein-conjugated F(ab)2 anti-fibrin (100 kDa) (PMNs [4]) [%]	PMNs that penetrated a short distance into the fibrin gels (PMNs [3]; 1 or 4 hr incubation) [%]	Adherent PMNs that excluded 10 kDa Rh-PEG from zones of contact with fibrin (PMNs [5])
CCCCC/C=C\C[C@@H](O)/C=C/C=C/C=C\[C@@H](O)CCCC(=O)O [LTB4, leukotriene B4]	> 200	12-25%	≤ 6	greater than 80%			
CSCC[C@H](NC=O)C(=O)N[C@@H](CC(C)C)C(=O)N[C@@H](Cc1ccccc1)C(=O)O [fMLP, formyl-methionyl-leucyl-phenylalanine]	> 200	< 0.3%			> 99	< 5	70-80%
